PubChem BioAssay AID504808 | Drosophila RNAi Screening Center – 2011

Screen: 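Genes whose loss lifts activity of an E2F-responsive reporter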 (primary screen)
Cells: Drosophila S2 cells
Reagent: long dsRNA against Drosophila genes
Read-out: 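Firefly luciferase driven by E2F sites, normalised to Renilla luciferase on the same minimal promoter, measured by plate reader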
Scale: E2F firefly: higher = more E2F reporter activity; Renilla normaliser: higher = more normaliser reporter signal
Hit rule: 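a knock-down counted as active when the firefly/Renilla E2F signal rose above 50%, a threshold chosen arbitrarily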
In all, the deposit lists about 21,000 reagents; this is an unselected part of those that have a named target and a result. In the full data, 18 (0.084%) are marked active. 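Raw counts without plate normalisation, one of two replicates; the ratio scores behind the calls were not deposited.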 Names joined by + are all predicted targets of the reagent. The record does not give: the amount of reagent, the time to read-out.

futsch [DRSC17688] → E2F firefly, rep 1: 84428; Renilla normaliser, rep 1: 2737; activity call: inactive
futsch [DRSC17949] → E2F firefly, rep 1: 1.08e5; Renilla normaliser, rep 1: 5645; activity call: inactive
futsch [DRSC17952] → E2F firefly, rep 1: 1995; Renilla normaliser, rep 1: 960; activity call: inactive
futsch [DRSC18543] → E2F firefly, rep 1: 1.27e5; Renilla normaliser, rep 1: 6071; activity call: inactive
Taz [DRSC07704] → E2F firefly, rep 1: 1.04e5; Renilla normaliser, rep 1: 4443; activity call: inactive
CG30380 [DRSC05069] → E2F firefly, rep 1: 1.40e5; Renilla normaliser, rep 1: 5247; activity call: inactive
TH1 [DRSC20289] → E2F firefly, rep 1: 9198; Renilla normaliser, rep 1: 820; activity call: inactive
l(3)mbn [DRSC08793] → E2F firefly, rep 1: 1.22e5; Renilla normaliser, rep 1: 4111; activity call: inactive
dlp [DRSC10281] → E2F firefly, rep 1: 1.00e5; Renilla normaliser, rep 1: 3278; activity call: inactive
dlp [DRSC10472] → E2F firefly, rep 1: 1.53e5; Renilla normaliser, rep 1: 7284; activity call: inactive
CG12133 [DRSC06108] → E2F firefly, rep 1: 1.56e5; Renilla normaliser, rep 1: 4684; activity call: inactive
CG15865 [DRSC19733] → E2F firefly, rep 1: 1.63e5; Renilla normaliser, rep 1: 6330; activity call: inactive
dally [DRSC08954] → E2F firefly, rep 1: 1.34e5; Renilla normaliser, rep 1: 4416; activity call: inactive
dally [DRSC11338] → E2F firefly, rep 1: 76394; Renilla normaliser, rep 1: 3640; activity call: inactive
QC [DRSC09736] → E2F firefly, rep 1: 75830; Renilla normaliser, rep 1: 3499; activity call: inactive
Rpn7 [DRSC16841] → E2F firefly, rep 1: 55853; Renilla normaliser, rep 1: 4637; activity call: inactive
ais [DRSC10523] → E2F firefly, rep 1: 67117; Renilla normaliser, rep 1: 3294; activity call: inactive
RluA-1 [DRSC02240] → E2F firefly, rep 1: 1.56e5; Renilla normaliser, rep 1: 5686; activity call: inactive
RluA-1 [DRSC03060] → E2F firefly, rep 1: 1.52e5; Renilla normaliser, rep 1: 5018; activity call: inactive
Grp170 [DRSC18524] → E2F firefly, rep 1: 2132; Renilla normaliser, rep 1: 1012; activity call: inactive
CG13991 [DRSC02323] → E2F firefly, rep 1: 1.58e5; Renilla normaliser, rep 1: 5351; activity call: inactive
Abcd3 [DRSC19488] → E2F firefly, rep 1: 1.32e5; Renilla normaliser, rep 1: 5195; activity call: inactive
dbo [DRSC11339] → E2F firefly, rep 1: 1.45e5; Renilla normaliser, rep 1: 6861; activity call: inactive
Cnep1r1 [DRSC20620] → E2F firefly, rep 1: 1.42e5; Renilla normaliser, rep 1: 5219; activity call: inactive

Not a retest: 5 of the entries above.
RluA-1 [DRSC03060] → E2F firefly, rep 1: 1.52e5; Renilla normaliser, rep 1: 5018; activity call: inactive
Grp170 [DRSC18524] → E2F firefly, rep 1: 2132; Renilla normaliser, rep 1: 1012; activity call: inactive
CG13991 [DRSC02323] → E2F firefly, rep 1: 1.58e5; Renilla normaliser, rep 1: 5351; activity call: inactive
Abcd3 [DRSC19488] → E2F firefly, rep 1: 1.32e5; Renilla normaliser, rep 1: 5195; activity call: inactive
dbo [DRSC11339] → E2F firefly, rep 1: 1.45e5; Renilla normaliser, rep 1: 6861; activity call: inactive

The listing continues.
CG12836 [DRSC06182] → E2F firefly, rep 1: 1.57e5; Renilla normaliser, rep 1: 5299; activity call: inactive
CG7369 [DRSC11822] → E2F firefly, rep 1: 66462; Renilla normaliser, rep 1: 3203; activity call: inactive
CG42824 + CG42823 [DRSC13230] → E2F firefly, rep 1: 73314; Renilla normaliser, rep 1: 2042; activity call: inactive
CG15382 [DRSC00397] → E2F firefly, rep 1: 1.57e5; Renilla normaliser, rep 1: 5460; activity call: inactive
CG3862 [DRSC00631] → E2F firefly, rep 1: 87986; Renilla normaliser, rep 1: 3523; activity call: inactive
drn [DRSC15147] → E2F firefly, rep 1: 1.17e5; Renilla normaliser, rep 1: 8150; activity call: inactive
CG11977 [DRSC14454] → E2F firefly, rep 1: 1.07e5; Renilla normaliser, rep 1: 6040; activity call: inactive
fu [DRSC20333] → E2F firefly, rep 1: 1.06e5; Renilla normaliser, rep 1: 4422; activity call: inactive
lncRNA:CR32368 [DRSC08899] → E2F firefly, rep 1: 1.31e5; Renilla normaliser, rep 1: 4525; activity call: inactive
CG7742 [DRSC03066] → E2F firefly, rep 1: 90446; Renilla normaliser, rep 1: 3883; activity call: inactive
CG6330 [DRSC16022] → E2F firefly, rep 1: 1835; Renilla normaliser, rep 1: 904; activity call: inactive
CG3117 [DRSC00568] → E2F firefly, rep 1: 1.60e5; Renilla normaliser, rep 1: 5998; activity call: inactive
